# PubChem BioAssay AID504791, Drosophila RNAi Screening Center | 2011
# Assay: 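Genes whose knock-down strengthens or weakens small-RNA reporter silencing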 (primary screen)
# Cell system: Drosophila S2-derived reporter cells
# Reagents: long dsRNA against Drosophila genes, about 150-250 ng dsRNA per well (siRNA assay); about 80-120 ng (miRNA assay)
# Timing: about 5 days (siRNA assay); about 4 days (miRNA assay)
# Treatment: copper sulfate induction of reporters: 25 µM (siRNA assay); 200 mM stated (miRNA assay), 1-2 days before reading
# Detection: 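Dual luciferase assay: Renilla to firefly signal ratio in each well, scaled to the mean ratio of its plate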
# Reading the numbers: siRNA reporter hit score: higher = 3 marks a strong hit with raised ratio; -3 a strong hit with lowered ratio
# Active means: 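a well was a first-pass pick when its plate-scaled ratio rose above 1.5 (siRNA assay) or 1.6 (miRNA assay), or dropped below 0.6; a gene counted only if two separate dsRNAs agreed on retest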
# The screen tested about 23,000 reagents; shown is a random part of those with a known target gene and a result. In the full data, 199 (0.86%) got an active call. 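Plate-scaled ratios behind the calls are not deposited; printed light signals are raw; many rows marked increased or decreased are still called inactive.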 A number with no mark means an inactive call. A plus sign joins genes that one reagent is predicted to hit.
target,DRSC id,siRNA reporter hit score,miRNA reporter change,"stable assay Renilla, run 1 (luminescence)","stable assay firefly, run 1 (luminescence)"
Dcps,DRSC12299,,,7895,3.77e5
St1,DRSC04504,,,43348,3.56e5
CG5386,DRSC15788,,,5958,2.71e5
CG30054,DRSC05354,,,5167,4.29e5
CG12069,DRSC14470,,,5360,3.73e5
CG13255,DRSC11702,,,6974,4.25e5
PH4alphaMP,DRSC17031,,,6098,4.00e5
CtsF,DRSC12056,,,6436,4.14e5
CtsF,DRSC12195,,,8758,5.91e5
CtsF,DRSC12196,,,6090,4.24e5
CG44422,DRSC18885,,,5700,5.40e5
CG44422,DRSC19380,,,4675,4.26e5
CG44422,DRSC19480,,,5891,3.60e5
CG44422,DRSC23284,,,2220,2.52e5
CG17287,DRSC06659,,,8155,5.01e5
Mipp1,DRSC11223,,,10207,4.08e5
armi,DRSC08193,,,5299,3.78e5
Or35a,DRSC03389,,,6534,3.58e5
CG3734,DRSC15509,,,7064,2.97e5
psd,DRSC03131,,,7144,4.30e5
CG11089 + CG31381,DRSC13690,,,5672,3.27e5
CG11089 + CG31381,DRSC14290,,,9663,3.74e5
CG13760,DRSC18617,,,6660,3.99e5
CG31556 (retired record),DRSC12122,,,5946,3.40e5
CG31556 (retired record),DRSC22177,,,8972,4.90e5
CG12231,DRSC19445,,,5711,3.39e5
His2B:CG33870 + His2B:CG33868 + His2B:CG33882 + 21 more,DRSC03757,,,6847,5.38e5
CG15550,DRSC15088,,,5734,3.08e5
feo,DRSC19398,,,3807,3.96e5
CG1344,DRSC04837,,,8842,1.28e6
CG16787,DRSC04282,,,4899,3.02e5
CG5062,DRSC18385,,,5943,2.55e5
CG31139,DRSC21393,,,9447,5.28e5
CG13070,DRSC09953,,,8050,4.09e5
Fen1,DRSC07415,,,5986,3.65e5
BckdhA,DRSC16395,,,6022,3.54e5
mAChR-B,DRSC16345,,,6543,3.01e5
dnr1,DRSC03948,,,7554,6.10e5
dnr1,DRSC04122,,,5256,3.02e5
PPP4R2r,DRSC18695,,,4111,3.68e5
PPP4R2r,DRSC21503,,,8500,5.27e5
Gss1 + Gss2,DRSC20008,,,4532,4.01e5
Gss1 + Gss2,DRSC21539,,,10061,5.11e5
spt4,DRSC07696,,,7742,5.12e5
CG1631,DRSC20535,,,5802,4.74e5
CG12842 (retired record),DRSC06188,,,6363,3.36e5
SrpRbeta,DRSC21668,,,8712,4.91e5
Rbbp5 + CG6434 (retired record),DRSC10635,,,9321,6.04e5
eys,DRSC00113,,,5283,3.97e5
eys,DRSC00402,,,8499,3.89e5
eys,DRSC00403,,,7671,3.85e5
eys,DRSC00695,,,11573,2.08e5
Hydr1,DRSC07063,,,5095,4.94e5
CG13056,DRSC09937,,,7130,3.44e5
Prosbeta1,DRSC07159,,reporter ratio raised past the hit cutoff (active),13307,3.32e5
cype,DRSC02356,,,6523,3.93e5
Arl8,DRSC16334,,,7299,4.72e5
tld,DRSC17084,,,7338,3.56e5
CG9289,DRSC03187,,,7235,3.78e5
dl,DRSC03520,,reporter ratio raised past the hit cutoff,49494,2.20e6
dl,DRSC03521,,,7918,4.09e5
Orc6,DRSC07497,,,7210,5.03e5
CG14302,DRSC14781,,,8206,3.55e5
CG32576 + UQCR-14,DRSC19870,,,4120,3.54e5
Mtk,DRSC07475,,,5347,2.97e5
Cyp303a1,DRSC03300,,,8615,4.89e5
Pex11c,DRSC14677,,,6939,3.47e5
fd96Cb,DRSC16947,,,7282,3.55e5
tay,DRSC20142,,,6970,3.22e5
CG12057,DRSC17797,,,6266,4.38e5
Orc5,DRSC03390,,,6744,3.77e5
Mkp + CG34140,DRSC08585,,,8506,3.13e5
Nubp1,DRSC02639,,,1.52e5,1.92e6
CG2993,DRSC14284,,,8006,6.80e5
CG2993,DRSC15457,,,8158,4.31e5
CG1418,DRSC06447,,,6779,4.81e5
CG2225,DRSC03722,,,10511,1.11e6
CG2225,DRSC03723,,,6928,4.62e5
CG16824,DRSC02525,-3,,7083,4.65e5
awd,DRSC16906,,,7103,4.74e5
beat-IV,DRSC14195,,,9146,4.57e5
beat-IV,DRSC14673,,,7983,4.86e5
CG32100,DRSC09725,,,6380,3.36e5
CG32100,DRSC10331,,,6256,3.20e5

An excerpt from above, limited to “stable assay firefly, run 1 (luminescence)”.
CG12842 (retired record) [DRSC06188] = 3.36e5
SrpRbeta [DRSC21668] = 4.91e5
Rbbp5 + CG6434 (retired record) [DRSC10635] = 6.04e5
eys [DRSC00113] = 3.97e5
eys [DRSC00402] = 3.89e5
eys [DRSC00403] = 3.85e5
